Substitutions are numbered along the chain they refer to. Numbers in names are those of the source. These are yes or no findings as the source states them, for the method shown. Some binding calls cover weakened binding; strength is not graded here.
T1: mouse ApoE (mouse) (UniProt P08226)
T1 sequence (looked up): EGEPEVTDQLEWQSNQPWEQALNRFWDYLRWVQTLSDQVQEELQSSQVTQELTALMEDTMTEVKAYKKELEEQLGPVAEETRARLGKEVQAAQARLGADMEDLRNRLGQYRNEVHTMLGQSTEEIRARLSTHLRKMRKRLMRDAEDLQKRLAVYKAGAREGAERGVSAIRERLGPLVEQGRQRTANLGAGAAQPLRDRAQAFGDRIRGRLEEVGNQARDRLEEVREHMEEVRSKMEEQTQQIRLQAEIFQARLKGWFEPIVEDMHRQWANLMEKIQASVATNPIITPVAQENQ

By UniProt entry, the sequences of proteins in these tests, tags left out. Where a name states a change or a piece, a line headed by the entry shows the natural chain unless it says otherwise.
UniProt P02649: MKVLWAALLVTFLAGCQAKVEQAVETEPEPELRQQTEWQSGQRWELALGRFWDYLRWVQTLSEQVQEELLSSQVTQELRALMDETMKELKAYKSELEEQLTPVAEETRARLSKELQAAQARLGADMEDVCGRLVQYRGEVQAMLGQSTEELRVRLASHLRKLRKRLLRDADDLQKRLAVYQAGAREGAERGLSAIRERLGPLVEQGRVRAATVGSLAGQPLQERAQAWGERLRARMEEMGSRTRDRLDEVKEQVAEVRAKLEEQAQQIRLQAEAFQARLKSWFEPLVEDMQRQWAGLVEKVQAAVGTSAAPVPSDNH

B1: BAP191.01-CPE-HC-M104E (antibody, V domains shown)
VH: QIQLVQSGPELKKPGETVKISCKASGYTFTTAGMQWVQKMPGKGFKWIGWINTHSGEPKYAEDFKGRFAFSLETSASTAYLQISNLKNEDTATYFCARMGGYAEDYWGQGTSVTVSS
VL: DIKLTQSPSSMYASLGERVTITCKASEDINSYLSWFQQKPGKSPKTLIYRANRLVDGVPSRFSGSGSGQDYSLTISSLEYEDMGIYYCLQYDEFPLTFGAGTKLELT
B2: BAP191.01-CPE-LC-P095D (antibody, V domains shown)
VH: B1 VH with E104M
VL: B1 VL with P95D
B3: BAP191-01-CPE-HC-M034D (antibody, V domains shown)
VH: B1 VH with M34D, E104M
VL: B1 VL
B4: BAP191.01-CPE-LC-Y091D (antibody, V domains shown)
VH: B1 VH with E104M
VL: B1 VL with Y91D
B5: BAP191.01-CPE-HC-R098E (antibody, V domains shown)
VH: B1 VH with R98E, E104M
VL: B1 VL
B6: BAP191.01-CPE-HC-I051D (antibody, V domains shown)
VH: B1 VH with I51D, E104M
VL: B1 VL
B7: BAP191.01-CPE-HC-M099E (antibody, V domains shown)
VH: B1 VH with M99E, E104M
VL: B1 VL

Each binder was assayed against Apolipoprotein E4 (human) (UniProt P02649) (assay: pH affinity ELISA, coated hApoE4 (Example 15)).

| binding | Binder |
| --- | --- |
| binds | B1 |
| binds | B2 |
| binds | B3 |
| binds | B4 |
| binds | B5 |
| binds | B6 |
| binds | B7 |

What follows are binders tested against T1, mouse ApoE (mouse) (assay: pH affinity ELISA, coated mouse ApoE (Example 16)).

| binding | Binder |
| --- | --- |
| binds | B1 |
| binds | B2 |
| binds | B3 |
| binds | B5 |
| binds | B6 |
| binds | B7 |

Reference: patent US20240400659A1
